Test results: PubChem BioAssay AID224 (DTP/NCI, 2004)
The list is a part of this screen's results and no random one: it gathers some chemical classes. Not every dose and run of a compound is shown. T/C gives the treated animals as a percentage of the vehicle group. For survival time, this PubChem deposit counts one and a half times the control or more as active, and values a quarter to a half above the control carry no call in these data; other NCI protocols may use other cut-offs. Some entries show no survivor count and are marked so; the dose need not have been tolerated. Schedules are NCI's codes, read here as Q, the interval in days (D) or hours (H), X, the number of doses. Some schedule codes hold Z or #, which are not explained here. Some entries were tested several times; the results are listed from low to high.

System: P335 leukemia ip, BDF1 mice, survival T/C %
Assay: NCI In Vivo Anticancer Drug Screen. Data for tumor model P335 Leukemia (intraperitoneal) in B6D2F1 (BDF1) mice
Conditions: T/C endpoint: mean survival time, schedule: Q01DX Z (ip), vehicle: saline, higher T/C = longer survival
Protocol: The antitumor activity of compounds was measured in mice bearing transplantable tumors. Survival or tumor size were measured and the results are expressed as the measurement made in the treated group (T) divided by the measurement made in the vehicle treated control group (C). The tumor model used in this assay is P335 Leukemia (intraperitoneal) in B6D2F1 (BDF1) mice

## CN(CCCl)CCCl
dose: 0.02 mg/kg/injection
  T/C: 122 % of control [survivor count not shown]
dose: 0.08 mg/kg/injection
  T/C: 108 % of control [survivor count not shown]
dose: 0.32 mg/kg/injection
  T/C: 106 % of control [survivor count not shown]
dose: 0.6 micrograms/kg/injection
  T/C: 87 % of control [survivor count not shown]
dose: 5.0 micrograms/kg/injection
  T/C: 90 % of control [survivor count not shown]
dose: 10.0 micrograms/kg/injection
  T/C: 125 % of control [survivor count not shown]
dose: 20.0 micrograms/kg/injection
  T/C: 103 [survivor count not shown] and 166 % of control [survivor count not shown]
dose: 40.0 micrograms/kg/injection
  T/C: 160 % of control [survivor count not shown]
